Earlier results as cited in US20050205101A1, “Combined pharmocological and surgical method and system for the treatment of eye disorders” (priority 2002, published 2005).
For at least one compound, name, drawing or mass did not settle the structure.

Test system: accommodation in humans
Conditions: subject; Eskridge 1972

SMILES: CNC(=O)Oc1ccc2c(c1)[C@]1(C)CCN(C)[C@@H]1N2C [eserine, physostigmine]
- maximum accommodative response: brief increase in the maximum accommodative response
